Reference: article PMC4536467, “A high affinity RIM-binding protein/Aplip1 interaction prevents the formation of ectopic axonal active zones” (eLife, 2015)
Results are given in words; binding and its absence hold for the method and conditions named. Binding seen in cells or lysates may run through a third protein. Binding calls can cover weak binding; strength is not graded here. Where a sequence is shown, tags or fusion partners need not be part of it.

Target: T1, Aplip1-GFP (pan-neuronally driven cDNA construct) (D. melanogaster) (UniProt Q9W0K0)
T1 sequence: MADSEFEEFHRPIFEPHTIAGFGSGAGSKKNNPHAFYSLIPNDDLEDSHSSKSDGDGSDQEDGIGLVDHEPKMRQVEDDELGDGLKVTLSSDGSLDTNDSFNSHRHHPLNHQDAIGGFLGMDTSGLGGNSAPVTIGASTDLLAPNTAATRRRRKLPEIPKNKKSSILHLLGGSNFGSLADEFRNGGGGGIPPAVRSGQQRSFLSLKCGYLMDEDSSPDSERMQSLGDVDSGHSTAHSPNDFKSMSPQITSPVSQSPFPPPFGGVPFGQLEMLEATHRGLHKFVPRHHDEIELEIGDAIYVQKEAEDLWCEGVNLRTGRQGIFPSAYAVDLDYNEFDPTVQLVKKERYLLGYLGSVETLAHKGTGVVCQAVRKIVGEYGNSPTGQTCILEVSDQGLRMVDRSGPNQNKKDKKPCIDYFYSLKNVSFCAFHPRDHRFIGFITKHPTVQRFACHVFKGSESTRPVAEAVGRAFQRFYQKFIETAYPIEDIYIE
Assay: co-IP; anti-GFP (GFP-Trap-A beads) from adult fly head extract (synaptic membrane / active zone protein-enriched fraction) of elav-Gal4 > UAS-Aplip1^GFP; deoxycholate and Triton X-100 lysate, overnight 4°C; Western blot; controls plain beads and GFP trapped beads

binding: binds
Substance: RIM-binding protein (RBP), endogenous
